PubChem BioAssay AID743121 | NCATS, 2013
Purpose: 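Knock-downs that sensitise breast cancer cells to camptothecin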 (primary screen). Cells: MDA-MB-231 cells, a human breast cancer line. Reagents: single siRNA against human genes, 20 nM siRNA (0.8 pmol per well). Timing: 120 h (drug added 48 h after transfection, read 72 h later). Conditions: camptothecin 20 nM (about EC30) for 72 h; vehicle 0.1% DMSO in parallel plates. Read-out: 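Cell viability by ATP luminescence (CellTiter-Glo) as % of non-targeting siRNA wells, and the log2 ratio of viability without drug over viability with camptothecin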. Direction: log2 vehicle/camptothecin viability: higher = stronger sensitisation to camptothecin; viability with camptothecin and viability without drug: higher = more viable cells. Active means: 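Active genes have an RSA gene-level p-value below 0.001, computed from the ratios of their separate siRNAs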.
This is a random part of about 26,000 reagents. 167 of them (0.63%) were called active. 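Calls are per gene from RSA p-values that are not deposited; an individual active-marked siRNA can sensitise only weakly.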 Reagents against one gene are numbered here.

target gene,reagent no.,log2 vehicle/camptothecin viability,viability with camptothecin (% of control),viability without drug (% of control),Call
BLK,1,-0.246,93,78.5,inactive
BLK,2,-0.41,53.5,40.3,inactive
BLK,3,-0.354,90.7,71,inactive
BLK,4,-0.169,87.9,78.1,inactive
INPP5D,1,-0.278,72.3,59.6,inactive
INPP5D,2,0.503,56.1,79.4,inactive
INPP5D,3,0.22,83.7,97.5,inactive
INPP5D,4,0.321,50,62.4,inactive
PTEN,1,0.0866,91.8,97.4,inactive
PTEN,2,0.293,93.8,115,inactive
PTEN,3,-0.256,67.6,56.6,inactive
PTEN,4,-0.209,85.2,73.7,inactive
DCTN1,1,-0.288,49.9,40.9,inactive
DCTN1,2,-0.0926,91.5,85.9,inactive
DCTN1,3,0.836,44.4,79.3,inactive
DCTN1,4,0.309,22.5,27.9,inactive
PIP5K1B,1,-0.405,109,82.6,inactive
PIP5K1B,2,0.0898,22,23.4,inactive
PIP5K1B,3,0.595,28.9,43.6,inactive
PIP5K1B,4,0.199,55.1,63.3,inactive
THRA,1,-0.0771,101,95.9,inactive
THRA,2,0.0366,84.8,86.9,inactive
THRA,3,0.0808,82.8,87.6,inactive
THRA,4,0.0388,45.7,47,inactive
KSR2,1,-0.207,119,103,inactive
KSR2,2,0.164,74,82.9,inactive
KSR2,3,-0.479,107,76.4,inactive
KSR2,4,-0.0918,55.7,52.3,inactive
DUSP1,1,-0.326,83.4,66.5,inactive
DUSP1,2,-0.139,76.8,69.8,inactive
DUSP1,3,-0.317,52.9,42.5,inactive
DUSP1,4,-0.113,99.3,91.9,inactive
MRGPRX2,1,0.094,67.8,72.4,inactive
MRGPRX2,2,-0.599,83.9,55.4,inactive
MRGPRX2,3,-0.369,147,113,inactive
MRGPRX2,4,1.01,23,46.2,inactive
RRM2,1,1.91,6.49,24.3,inactive
RRM2,2,0.0915,33.7,35.9,inactive
RRM2,3,-0.327,11.4,9.06,inactive
RRM2,4,0.0375,20.7,21.3,inactive
CENPM,1,0.588,22.2,33.4,inactive
CENPM,2,-0.0432,85.5,83,inactive
CENPM,3,-0.0857,93.6,88.2,inactive
CENPM,4,-0.217,101,87.3,inactive
TGFB3,1,-0.238,98.3,83.3,inactive
TGFB3,2,-0.146,99.8,90.2,inactive
TGFB3,3,-0.299,59.2,48.1,inactive
TGFB3,4,0.243,27.8,32.9,inactive

In a second layout: results already given
KSR2 #3
- log2 vehicle/camptothecin viability: -0.479
- viability with camptothecin (% of control): 107
- viability without drug (% of control): 76.4
- Call: inactive

KSR2 #4
- log2 vehicle/camptothecin viability: -0.0918
- viability with camptothecin (% of control): 55.7
- viability without drug (% of control): 52.3
- Call: inactive

DUSP1 #1
- log2 vehicle/camptothecin viability: -0.326
- viability with camptothecin (% of control): 83.4
- viability without drug (% of control): 66.5
- Call: inactive

DUSP1 #2
- log2 vehicle/camptothecin viability: -0.139
- viability with camptothecin (% of control): 76.8
- viability without drug (% of control): 69.8
- Call: inactive

DUSP1 #3
- log2 vehicle/camptothecin viability: -0.317
- viability with camptothecin (% of control): 52.9
- viability without drug (% of control): 42.5
- Call: inactive

DUSP1 #4
- log2 vehicle/camptothecin viability: -0.113
- viability with camptothecin (% of control): 99.3
- viability without drug (% of control): 91.9
- Call: inactive
